This assay deals with L1210 leukemia ip in BDF1 mice, survival T/C. Put plainly: NCI In Vivo Anticancer Drug Screen. Data for tumor model L1210 Leukemia (intraperitoneal) in B6D2F1 (BDF1) mice. To be noted: T/C endpoint: mean survival time, higher T/C = longer survival.
[1] abbreviates: dose: 200.0 mg/kg/injection, schedule: Q01DX001 (ip), vehicle: Klucel (hydroxypropylcellulose) (HPC).
Setting [2] is: dose: 200.0 mg/kg/injection, schedule: Q04DX003 (ip), vehicle: Klucel (hydroxypropylcellulose) (HPC).
Where [3] appears, read: dose: 400.0 mg/kg/injection, schedule: Q01DX001 (ip), vehicle: Klucel (hydroxypropylcellulose) (HPC).
The mark [4] stands for this setting: dose: 400.0 mg/kg/injection, schedule: Q04DX003 (ip), vehicle: Klucel (hydroxypropylcellulose) (HPC).
[5] abbreviates: dose: 200.0 mg/kg/injection, schedule: Q01DX009 (ip), vehicle: Klucel (hydroxypropylcellulose) (HPC).
Setting [6] is: dose: 400.0 mg/kg/injection, schedule: Q01DX009 (ip), vehicle: Klucel (hydroxypropylcellulose) (HPC).
The mark [7] stands for this setting: dose: 100.0 mg/kg/injection, schedule: Q04DX002 (ip), vehicle: saline with Tween-80.
[8] abbreviates: dose: 200.0 mg/kg/injection, schedule: Q04DX002 (ip), vehicle: saline with Tween-80.
Setting [9] is: dose: 100.0 mg/kg/injection, schedule: Q01DX009 (ip), vehicle: Klucel (hydroxypropylcellulose) (HPC).
Setting [10] is: dose: 400.0 mg/kg/injection, schedule: Q01DX001 (ip), vehicle: saline.
The mark [11] stands for this setting: dose: 400.0 mg/kg/injection, schedule: Q04DX003 (ip), vehicle: saline with Tween-80.
Where [12] appears, read: dose: 100.0 mg/kg/injection, schedule: Q04DX003 (ip), vehicle: saline with Tween-80.
Setting [13] is: dose: 200.0 mg/kg/injection, schedule: Q04DX003 (ip), vehicle: saline with Tween-80.
The mark [14] stands for this setting: dose: 512.0 mg/kg/injection, schedule: Q01DX001 (ip), vehicle: saline.
[15] abbreviates: dose: 400.0 mg/kg/injection, schedule: Q04DX002 (ip), vehicle: Klucel (hydroxypropylcellulose) (HPC).
[16] abbreviates: dose: 200.0 mg/kg/injection, schedule: Q04DX002 (ip), vehicle: Klucel (hydroxypropylcellulose) (HPC).

The list shows only some results of the screen, not a fair sample: it gathers tests that were run many times, whatever their T/C, doses with no T/C, and many T/C values between a quarter and a half above the control. Other doses and runs of a compound stand elsewhere. T/C gives the treated animals as a percentage of the vehicle group. Some entries give survivors of the animals treated and no T/C: the source holds a T/C of zero for them, seemingly a mark for toxic or unscored doses. Some survivor counts are full or nearly so, which does not show that the dose was tolerated: the source hardly ever lists a survival T/C far under the control, and the zero likely stands for such cases as well. Counts of survivors are from the toxicity check (mostly the fifth day) where no day follows; animals may have died later. Schedules are NCI's codes, read here as Q, the interval in days (D) or hours (H), X, the number of doses. Some schedules carry Z or #; the key to these is not given. Some structures stand for samples that the source files as different forms (salt, stereo form or complex); doses refer to the form tested. Where survival is the endpoint, the PubChem record calls one and a half times the control and up active, and a quarter to a half above the control has no call in these data; cut-offs in other NCI protocols can differ.

`S=C1NCc2ccccc2N1`: the survivor count is, setting by setting: (dose: 100.0 mg/kg/injection, schedule: Q04DX003 (ip), vehicle: Klucel (hydroxypropylcellulose) (HPC)) 1 of 6; under setting [1], 0 of 3; under setting [2], 0 of 6; under setting [3], 0 of 3; under setting [4], 0 of 6.
As for `COS(C)(=O)=O`, for the setting “dose: 200.0 mg/kg/injection, schedule: Q01DX Z (ip), vehicle: carboxymethylcellulose (CMC)”, the survivor count is 0 of 6.
As to `CC(C)C(C#N)(CCN1CCCCC1)c1cccc2ccccc12` (stereo unspecified), the survivor count was 3 of 6 under setting [5] and 0 of 6 under setting [6].
With `NC(=O)c1c(/N=C/c2cc(Br)ccc2O)sc2c1CCCC2`, the survivor count by setting is: under setting [7], 3 of 3; under setting [8], 3 of 3.
As for `O=C(O)c1ccc(CO)o1`, the survivor count under setting [5] is recorded as 4 of 6.
For the molecule `CCCCOC(=O)c1ccc(OC(=O)Nc2cccc(Cl)c2)cc1`, the survivor count is, setting by setting: under setting [9], 3 of 6; under setting [6], 2 of 6.
`CC1SCC(NC(=O)N(CCCl)N=O)CS1` (stereo unspecified): the T/C (dose: 40.0 mg/kg/injection, schedule: Q01DX001 (ip), vehicle: saline with Tween-80) is 144 % of control. Besides, the survivor count is given as 9 of 10 (dose: 90.0 mg/kg/injection, schedule: Q01DX001 (ip), vehicle: saline with Tween-80); 3 of 10 (dose: 134.0 mg/kg/injection, schedule: Q01DX001 (ip), vehicle: saline with Tween-80); 2 of 10 (dose: 200.0 mg/kg/injection, schedule: Q01DX001 (ip), vehicle: saline with Tween-80).
For `O=[N+]([O-])c1ncc[nH]1`, the survivor count under setting [10] is on record as 0 of 4.
Consider `OC1(C2C=CC=C2)c2ccccc2C=Cc2ccccc21`, for which the survivor count (dose: 75.0 mg/kg/injection, schedule: Q01DX001 (ip), vehicle: other) is on record as 0 of 6; the survivor count (dose: 150.0 mg/kg/injection, schedule: Q01DX001 (ip), vehicle: other) is 0 of 6; the survivor count (dose: 300.0 mg/kg/injection, schedule: Q01DX001 (ip), vehicle: other) is listed as 0 of 6.
Regarding `N#C/C(=N/O)c1ccccn1`, the survivor count under setting [6] was 1 of 6.
With `Cc1nc2c(=O)n(C)c(=O)n(C)c2n1C`, the survivor count under setting [11] is on record as 4 of 6.
Take `CCCCCCCCCCCC(C)NCc1ccccc1` (stereo unspecified): the survivor count is reported as 1 of 6 (dose: 50.0 mg/kg/injection, schedule: Q04DX003 (ip), vehicle: saline); 1 of 6 (dose: 55.0 mg/kg/injection, schedule: Q01DX009 (ip), vehicle: acetone); 0 of 6 (dose: 100.0 mg/kg/injection, schedule: Q04DX003 (ip), vehicle: saline).
`COC(OC)C1OC(c2ccccc2)OC2COC(c3ccccc3)OC21` (stereo unspecified): the survivor count is on record as 6 of 6 under setting [12], 6 of 6 under setting [13] and 6 of 6 under setting [11].
As to `O=C(O)CCC(=O)CC[N+](=O)[O-]`, the survivor count (dose: 300.0 mg/kg/injection, schedule: Q01DX001 (ip), vehicle: saline) was 1 of 6.
Consider `O=[N+]([O-])c1c[c]([Hg][Cl])c(O)[c]([Hg][Cl])c1`, for which the survivor count under setting [12] was 3 of 6, the survivor count under setting [13] is listed as 0 of 6 and the survivor count under setting [11] is 0 of 6.
`CC(C)c1ccc(C(c2c(O)c3ccccc3oc2=O)c2c(O)c3ccccc3oc2=O)cc1`: the survivor count under setting [6] is reported as 6 of 6.
Regarding `c1ccc(CSc2ncnc3nncnc23)cc1`, the survivor count (dose: 400.0 mg/kg/injection, schedule: Q01DX001 (ip), vehicle: other) is reported as 0 of 4.
For `CCN(CC)C/C=C/C(C)Nc1ccnc2cc(Cl)ccc12` (stereo unspecified), the survivor count reads like this: under setting [7], 0 of 3; under setting [8], 0 of 3; (dose: 400.0 mg/kg/injection, schedule: Q04DX002 (ip), vehicle: saline with Tween-80) 0 of 3.
As for `CCCCCCCCCCCCNC(=O)c1ccc[n+](Cc2ccccc2)c1`, the survivor count is recorded as 0 of 6 (dose: 20.0 mg/kg/injection, schedule: Q01DX009 (ip), vehicle: saline) and 5 of 6 (dose: 20.0 mg/kg/injection, schedule: Q04DX003 (ip), vehicle: saline sonified).
On to `C1CCC(N2CC3CCCC2O3)CC1` (stereo unspecified), for which the survivor count under setting [10] is listed as 0 of 4.
On to `CS(=O)(=O)OCCN(CCOS(C)(=O)=O)c1cccc([N+](=O)[O-])c1`, for which the survivor count runs as follows: (dose: 228.0 mg/kg/injection, schedule: Q01DX001 (ip), vehicle: saline) 3 of 6; under setting [14], 4 of 6; (dose: 512.0 mg/kg/injection, schedule: Q01DX015 (ip), vehicle: saline) 5 of 6; (dose: 768.0 mg/kg/injection, schedule: Q01DX015 (ip), vehicle: saline) 6 of 6. Also, the T/C under setting [14] is 131 % of control.
Turning to `CN(C(=O)C1C(C(=O)O)C2(Cl)C(Cl)=C(Cl)C1(Cl)C2(Cl)Cl)C1CCCCC1` (stereo unspecified), the survivor count under setting [15] is recorded as 3 of 3.
For the molecule `CSc1ccc(NC(=O)Nc2cc(Cl)c(Cl)cc2C)cc1`, the survivor count under setting [9] was 6 of 6.
`O=C(Nc1cccc(Cl)c1)Nc1cccc(C(F)(F)F)c1`: the survivor count (dose: 200.0 mg/kg/injection, schedule: Q01DX015 (ip), vehicle: carboxymethylcellulose (CMC)) is reported as 2 of 6; the survivor count (dose: 300.0 mg/kg/injection, schedule: Q01DX015 (ip), vehicle: carboxymethylcellulose (CMC)) is 2 of 6; the survivor count (dose: 400.0 mg/kg/injection, schedule: Q01DX015 (ip), vehicle: carboxymethylcellulose (CMC)) is listed as 1 of 6.
In the case of `CC1(C)N=C(N)N=C(N)N1c1cccc(OCCOc2cccc(N)c2)c1`, the survivor count is 0 of 6 (dose: 80.0 mg/kg/injection, schedule: Q01DX001 (ip), vehicle: saline); 0 of 3 under setting [1]; 0 of 3 under setting [3].
Turning to `CN(C)N=Nc1ccc(C(=O)NN)cc1`, the T/C reads like this: (dose: 75.0 mg/kg/injection, schedule: Q01DX Z (ip), vehicle: carboxymethylcellulose (CMC)) 134 % of control; (dose: 100.0 mg/kg/injection, schedule: Q01DX Z (ip), vehicle: carboxymethylcellulose (CMC)) 129 % of control.
Take `CCCCOC(=O)Nc1cccc(O)c1`: where the note is “dose: 400.0 mg/kg/injection, schedule: Q01DX009 (ip), vehicle: saline with Tween-80”, the survivor count is recorded as 5 of 6.
For `CC(C)(C)c1ccc(O)c([N+](=O)[O-])c1`, the survivor count under setting [16] was 3 of 3 and the survivor count under setting [15] was 3 of 3.
Regarding `CCOc1ccccc1/C=C(\C#N)c1cccc(Cl)c1`, under “dose: 400.0 mg/kg/injection, schedule: Q01DX009 (ip), vehicle: other”, the survivor count was 6 of 6.
As to `O=C(CCCN1CCC(n2c(=O)[nH]c3ccccc32)CC1)c1ccc(F)cc1`, the survivor count is, setting by setting: (dose: 50.0 mg/kg/injection, schedule: Q04DX003 (ip), vehicle: Klucel (hydroxypropylcellulose) (HPC)) 4 of 4; under setting [9], 5 of 6; (dose: 200.0 mg/kg/injection, schedule: Q01DX009 (ip), vehicle: saline) 1 of 6; under setting [2], 2 of 4; under setting [4], 0 of 4.
Take `O=C(Nc1ccccc1C(=O)N/N=C/c1c(O)ccc2ccccc12)c1ccccc1Cl`: the survivor count under setting [16] was 3 of 3.

The values above are taken from PubChem BioAssay AID248 (DTP/NCI, 2004).
